Source: patent US7256321B2, “Intracellular modulators of apoptopic cell death pathways” (Applied Research Systems ARS Holding N.V., priority 1997, dated 2007)
For at least one compound, name, drawing or mass did not settle the structure.

Tested on: GILR
Experiment: GILR mRNA and protein expression in thymocytes and lymphoid cells (Northern, Western blot)
Format: cell-based, mouse
[1] = thymocytes, anti-CD3 plus DEX, 3 hours
[2] = thymocytes, single agent, 3 hours (DEX 100 nM; anti-CD3 1 μg/ml)

C[C@@H]1C[C@H]2[C@@H]3CCC4=CC(=O)C=C[C@]4(C)[C@@]3(F)[C@@H](O)C[C@]2(C)[C@@]1(O)C(=O)CO [DEX, dexamethasone]
GILR expression (mRNA, Northern blot) (fresh thymocytes, spleen and lymph node lymphocytes, DEX 100 nM/l, 3 hrs): clearly increased
GILR protein band of approximately 17 kDa (Western blot) (thymocytes, 6 hours DEX treatment, not in untreated): detected
GILR mRNA (Northern blot) [1]: induced
GILR protein (Western blot) [1]: induced
GILR mRNA (Northern blot) [2]: induced
GILR protein (Western blot) [2]: induced
